According to patent publication US20100323950A1, “USE OF BETA-MELANOTROPIN AS A THERAPEUTIC AGENT, EG FOR THE TREATMENT OF AIDS OR ALZHEIMER” (priority 2007, published 2010):
At least one peptide structure holds a part that was inferred or is arguable (an end, a ring closure or a residue).

Experiments:
[1] = system: Human Peripheral Blood Mononuclear Cells (PBMC); assay: B cell proliferation assay (SAC plus Interleukin-2 stimulated PBMC, 3H-thymidine); assay type: cell-based; details: peptide 10 micrograms per ml, 3 days plus 12 hours 3H-thymidine
Human A549 cells [2] = assay: Apoptosis prevention assay (C2 ceramide, Annexin-5); assay type: cell-based; details: A549 cells pretreated 30 min with peptide 10 micrograms per ml, then C2 ceramide
Human A549 cells [3] = assay: Apoptosis induction assay (Annexin-5); assay type: cell-based; details: 24 hours exposure
[4] = system: macrophages differentiated from human PBMC; assay: TNF alpha production assay (LPS stimulated macrophages, ELISA); assay type: cell-based; details: peptide 10 micrograms per ml 30 min before LPS 200 ng/ml, overnight
[5] = system: spleen cells of Ovalbumin immunized Balb/c mice; assay: Th1/Th2 cytokine profiling assay (Ovalbumin restimulated spleen cells, CBA kit); assay type: cell-based, mouse; details: peptide 10 micrograms per ml; Ovalbumin 10 micrograms/ml restimulation; 72 hours
Human A549 cells [6] = assay: Propidium iodide cell cycle assay; assay type: cell-based; details: peptide 10 micrograms per ml, 24 hours, propidium iodide FACS
[7] = system: Human Peripheral Blood Mononuclear Cells (PBMC); assay: T cell proliferation assay (PHA stimulated PBMC, 3H-thymidine); assay type: cell-based; details: peptide 10 micrograms per ml, 3 days plus 12 hours 3H-thymidine
HUVEC = assay: Endothelial tube formation assay; assay type: cell-based, human; details: peptide 10 micrograms per ml, 20 hours, average tubule length
[8] = system: Human Peripheral Blood Mononuclear Cells (PBMC); assay: cAMP induction assay (ELISA); assay type: cell-based; details: 10 min at 37° C., forskolin 50 micrograms per ml as positive control
[9] = system: Primary Human endothelial cells (HUVEC); assay: Endothelial cell migration assay; assay type: cell-based; details: peptide 10 micrograms per ml, 22 hours

**Q.** How did the “% of SAC/IL2 induced control” value [1] turn out when `CSCC[C@H](NC(=O)[C@H](CCCNC(=N)N)NC(=O)[C@H](Cc1ccc(O)cc1)NC(=O)[C@@H]1CCCN1C(=O)CNC(=O)[C@H](CCC(=O)O)NC(=O)[C@H](CC(=O)O)NC(=O)[C@H](CCCCN)NC(=O)[C@H](CCCCN)NC(=O)[C@H](CCC(=O)O)NC(=O)[C@H](C)N)C(=O)N[C@@H](CCC(=O)O)C(=O)N[C@@H](Cc1c[nH]cn1)C(=O)N[C@@H](Cc1ccccc1)C(=O)N[C@@H](CCCNC(=N)N)C(=O)N[C@@H](Cc1c[nH]c2ccccc12)C(=O)NCC(=O)N[C@@H](CO)C(=O)N1CCC[C@H]1C(=O)N1CCC[C@H]1C(=O)N[C@@H](CCCCN)C(=O)N[C@@H](CC(=O)O)C(=O)O` [Beta MSH] was run?
**A.** Its value is 100.4%.

**Q.** What about the “% prevention of ceramide induced apoptosis” value (Human A549 cells [2]) of the same compound?
**A.** The value was 16.45%.

**Q.** What about the “% of induction” value (Human A549 cells [3]) of the same compound?
**A.** Its value is 2.2%.

**Q.** And the “% of LPS induction” value [4]?
**A.** Its value is 97.3%.

**Q.** What about the “IFNY spleen cells; TH1 response (% of control)” value [5] of the same compound?
**A.** The value was 102.8 % of control.

**Q.** What about the “IL-2 spleen cells (% of control)” value [5] of the same compound?
**A.** Its value is 256.0 % of control.

**Q.** And the “IL-4 spleen cells; TH2 response (% of control)” value [5]?
**A.** The value was 188.6 % of control.

**Q.** And the “IL-5 spleen cells; TH2 response (% of control)” value [5]?
**A.** The value was 150.2 % of control.

**Q.** And the “TNF-a spleen cells; TH1 response (% of control)” value [5]?
**A.** Its value is 114.1 % of control.

**Q.** And the “Cell cycle analysis G0/G1” value (Human A549 cells [6])?
**A.** Its value is 57.9.

**Q.** And the “Cell cycle analysis G2/M” value (Human A549 cells [6])?
**A.** Its value is 9.2.

**Q.** And the “Cell cycle analysis S” value (Human A549 cells [6])?
**A.** Its value is 32.9.

**Q.** And the “% of PHA induced Control” value [7]?
**A.** Its value is 99.9%.

**Q.** What about the “% inhibition of tube formation” value (HUVEC) of the same compound?
**A.** Its value is 2%.

**Q.** What about the “% of Forskolin (positive control) induced cAMP formation” value [8] of the same compound?
**A.** The value was 0.0%.

**Q.** What about the “% inhibition of migration” value [9] of the same compound?
**A.** Its value is 16%.
